Source: PMC8766550

Protein sequences, listed by entry. Tags and fused reporters are not part of them. Lines headed by an entry give the natural chain unless they say otherwise; changes in a name come on top. Chains listed by the source or under a name are the forms on record and can include a tag or linker. Residues count along the entry.
MCL1-Δ208–350 (Q07820, residues 1-207): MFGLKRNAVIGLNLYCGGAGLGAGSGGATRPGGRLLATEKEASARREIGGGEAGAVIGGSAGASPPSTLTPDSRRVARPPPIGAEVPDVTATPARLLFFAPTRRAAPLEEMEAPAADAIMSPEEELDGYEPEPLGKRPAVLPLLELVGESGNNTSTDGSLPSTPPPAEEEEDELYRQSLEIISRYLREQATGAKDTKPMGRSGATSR
MCL1-Δ208–350-P198A (Q07820, form named): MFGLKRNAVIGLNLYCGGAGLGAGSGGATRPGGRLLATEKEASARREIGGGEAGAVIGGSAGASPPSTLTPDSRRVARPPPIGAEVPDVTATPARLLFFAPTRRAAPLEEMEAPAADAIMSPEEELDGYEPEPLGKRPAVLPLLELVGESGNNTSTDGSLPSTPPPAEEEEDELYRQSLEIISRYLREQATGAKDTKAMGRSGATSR
UniProt P06733: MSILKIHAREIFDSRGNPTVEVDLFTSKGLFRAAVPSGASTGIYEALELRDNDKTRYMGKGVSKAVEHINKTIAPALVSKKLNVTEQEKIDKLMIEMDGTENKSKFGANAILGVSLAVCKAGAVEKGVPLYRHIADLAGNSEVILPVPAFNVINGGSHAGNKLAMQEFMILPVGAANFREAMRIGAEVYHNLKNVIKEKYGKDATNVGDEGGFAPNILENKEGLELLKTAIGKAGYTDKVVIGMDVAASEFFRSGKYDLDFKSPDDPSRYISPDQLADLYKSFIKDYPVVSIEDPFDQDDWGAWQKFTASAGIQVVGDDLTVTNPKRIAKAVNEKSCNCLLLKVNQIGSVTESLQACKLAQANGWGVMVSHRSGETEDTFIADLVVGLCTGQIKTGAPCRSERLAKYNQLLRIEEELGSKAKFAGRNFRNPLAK
UniProt Q12905: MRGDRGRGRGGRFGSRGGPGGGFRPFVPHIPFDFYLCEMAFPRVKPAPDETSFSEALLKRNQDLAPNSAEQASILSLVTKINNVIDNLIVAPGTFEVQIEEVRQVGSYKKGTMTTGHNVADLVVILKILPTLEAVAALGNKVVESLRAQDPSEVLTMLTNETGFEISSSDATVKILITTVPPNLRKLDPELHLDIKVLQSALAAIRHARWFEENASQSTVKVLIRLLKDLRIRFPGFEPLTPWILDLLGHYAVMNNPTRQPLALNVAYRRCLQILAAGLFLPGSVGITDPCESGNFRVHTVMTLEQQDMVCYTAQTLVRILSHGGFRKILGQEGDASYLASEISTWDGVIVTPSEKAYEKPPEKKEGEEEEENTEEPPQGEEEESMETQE

Experiments:
[1] = target: MCL1-Δ208–350-P198A (UniProt Q07820); assay: affinity purification with mass spectrometry; MCL1-Δ208–350 as bait and MCL1-Δ208–350-P198A as control, immunoprecipitated with anti-MCL1 antibodies; interactions doxorubicin-inducible
[2] = target: MCL1-Δ208–350 (UniProt Q07820); assay: as above

Row | binding [1] | binding [2] | Substance
1 | no binding | binds | alpha-enolase (from UniProt P06733 1-434) (enzyme)
2 | no binding | – | interleukin enhancer-binding factor 2 (from UniProt Q12905 1-390)

No constants are given. Whether binding was seen depends on the method and setting. In cells and extracts the contact can be indirect. Here binding means that the protein was enriched with, or labelled near, the bait; the list need not be complete. For part of these data: A no says only that the protein was not detected with the bait.
